According to US4736051A, “Process for the preparation of an alkali metal salt of a diester phosphoric acid” (Kao Corporation, priority 1985, dated 1988):
For at least one compound, name, drawing or mass did not settle the structure.

Assays:
[1] = Lather amount (lather volume) of 5% aqueous solution of surface active agent; assay type: physicochemical
Description: The lather amount was measured according to the following manner. An aqueous solution containing 5% of surface active agent is prepared and 100 g of the aqueous solution is poured into a measuring cylinder, followed by agitation for 30 seconds by agitator. After agitation, the aqueous solution is placed as it is for 10 seconds, followed by subjecting to measurement of the lather volume. The revolution of the agitator is 1000 rpm and the agitator paddles are reversely rotated every 5 seconds. Temperature was maintained 40° C. during the measurement.

Craft point = assay type: physicochemical

CCCCCCCCCCCCOP(=O)(O)OCC(O)CO (stereo not shown) [Sodium dodecylglyceryl phosphate, sodium dodecylglyceryl phosphate]
lather amount (lather Vol. ml) ([1]; 5% aqueous solution, 100 g, 1000 rpm, 30 seconds agitation, 10 seconds standing, 40° C.): 240 mL | lather amount compared with sodium dodecyl phosphates ([1]; in words, Table 1 comparison): almost the same as those of sodium dodecyl phosphates | craft point (°C.) (Craft point): < 0 °C | craft point compared with sodium dodecyl phosphates (Craft point; in words, Table 1 comparison): extremely lower than those of sodium dodecyl phosphates
